Experimental data: PubChem BioAssay AID686938 (Drosophila RNAi Screening Center, 2013)

Assay: 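Knock-downs reducing store-operated calcium influx in Drosophila cells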 (primary screen)
System: Drosophila S2R+ cells
Reagent: long dsRNA against Drosophila genes, about 0.25 µg dsRNA per well, roughly 10,000 cells
Time to read-out: 5 days of knock-down before the calcium assay
Treatment: thapsigargin (SERCA pump blocker) to empty calcium stores; entry signal taken 4 min after adding it
Detection: 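Per-well fluo-4 fluorescence in two replicates, unnormalised, measured in resting cells and 4 min after store depletion by the SERCA blocker thapsigargin; ratio of the two present in few wells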
Reading the numbers: calcium entry signal: higher = stronger calcium signal after store depletion; entry to resting ratio: higher = more calcium entry relative to resting level; resting calcium signal: higher = higher resting calcium signal
Active means: 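Hit if the duplicate-averaged plate z-score for entry over resting signal is under −3; wells with weak total dye signal (Fmax z < −2) or more than 5 off-targets removed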
Meaning of the calls: active = strongly reduced calcium entry; inactive = no strong reduction
The screen tested about 23,000 reagents; this is a random part of those with a known target gene and a result. Of all reagents, 75 (0.33%) were called active. 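Raw plate signals without normalisation; calls rest on plate z-scores that were not deposited; ratio present for only 364 wells.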 A plus sign joins genes that one reagent is predicted to hit. Reagent sequences are not shown. Not given: the dose of the treatment.

| gene | dsRNA | calcium entry signal, replicate 1 (fluorescence units) | calcium entry signal, replicate 2 (fluorescence units) | entry to resting ratio | resting calcium signal, replicate 1 (fluorescence units) | resting calcium signal, replicate 2 (fluorescence units) | outcome |
| --- | --- | --- | --- | --- | --- | --- | --- |
| cag (GeneID 36157) | DRSC07587 | 4.20e7 | 3.93e7 | – | 2.04e7 | 1.79e7 | inactive |
| Strica (GeneID 35528) | DRSC04920 | 4.62e7 | 4.19e7 | – | 2.27e7 | 1.89e7 | inactive |
| gry (GeneID 38391) | DRSC08028 | 3.31e7 | 2.53e7 | – | 1.38e7 | 1.21e7 | inactive |
| gry (GeneID 38391) | DRSC08518 | 3.68e7 | 2.41e7 | – | 2.46e7 | 1.20e7 | inactive |
| tbrd-3 (GeneID 246604) | DRSC04295 | 3.94e7 | 4.05e7 | – | 1.99e7 | 1.90e7 | inactive |
| CG10600 (GeneID 35142) | DRSC02074 | 4.73e7 | – | – | 2.23e7 | – | inactive |
| Jupiter (GeneID 41392) | DRSC15204 | 2.75e7 | 3.64e7 | – | 1.23e7 | 1.66e7 | inactive |
| Jupiter (GeneID 41392) | DRSC15205 | 3.96e7 | 3.83e7 | – | 2.08e7 | 1.84e7 | inactive |
| Jupiter (GeneID 41392) | DRSC15389 | 4.36e7 | 3.97e7 | – | 2.10e7 | 2.01e7 | inactive |
| CG31269 (GeneID 318653) | DRSC15744 | 3.76e7 | 4.88e7 | – | 1.78e7 | 5.85e7 | inactive |
| Ccdc39 (GeneID 40595) | DRSC12286 | 2.69e7 | 4.62e7 | – | 1.28e7 | 2.16e7 | inactive |
| Slh (GeneID 33434) | DRSC00407 | 3.42e7 | 4.12e7 | – | 1.67e7 | 1.78e7 | inactive |
| Slh (GeneID 33434) | DRSC00789 | 2.38e7 | 3.02e7 | – | 1.58e7 | 1.53e7 | inactive |
| Cnot4 (GeneID 34416) | DRSC02830 | 4.36e7 | 5.46e7 | – | 2.16e7 | 2.27e7 | inactive |
| Cnot4 (GeneID 34416) | DRSC02831 | 4.24e7 | 5.52e7 | – | 2.10e7 | 2.42e7 | inactive |
| Aptx (GeneID 42322) | DRSC15768 | 3.54e7 | 3.83e7 | – | 4.37e7 | 1.59e7 | inactive |
| Art6 (GeneID 41699) | DRSC16583 | 3.53e7 | 4.05e7 | – | 1.69e7 | 6.92e7 | inactive |
| CG32053 (GeneID 39178) | DRSC10683 | 3.67e7 | 2.76e7 | – | 2.55e7 | 1.14e7 | inactive |
| pnut (GeneID 35801) | DRSC07666 | 4.39e7 | 4.26e7 | – | 1.94e7 | 2.12e7 | inactive |
| natalisin (GeneID 5740700) | DRSC14966 | 2.33e7 | 2.76e7 | – | 1.31e7 | 2.92e7 | inactive |
| natalisin (GeneID 5740700) | DRSC14967 | 2.59e7 | 3.09e7 | – | 1.33e7 | 5.26e7 | inactive |
| Obp46a (GeneID 36088) | DRSC06220 | 5.15e7 | 4.85e7 | – | 2.28e7 | 2.18e7 | inactive |
| Brca2 (GeneID 37916) | DRSC04219 | 4.17e7 | 4.42e7 | – | 2.19e7 | 2.09e7 | inactive |
| Brca2 (GeneID 37916) | DRSC04220 | 4.19e7 | 4.85e7 | – | 2.18e7 | 2.14e7 | inactive |
| CG31681 (GeneID 318882) | DRSC00107 | 2.96e7 | 3.05e7 | – | 1.67e7 | 1.36e7 | inactive |
| CG10444 (GeneID 37294) | DRSC05990 | 2.69e7 | 2.07e7 | – | 1.72e7 | 1.32e7 | inactive |
| CG33128 (GeneID 326263) | DRSC00294 | 3.88e7 | 1.60e7 | – | 1.72e7 | 9.30e6 | inactive |
| barc (GeneID 40369) | DRSC11792 | 2.31e7 | 2.61e7 | – | 1.45e7 | 2.02e7 | inactive |
| CG32683 (GeneID 31970) | DRSC17990 | 3.08e7 | 5.19e7 | – | 1.62e7 | 2.27e7 | inactive |
| CG32683 (GeneID 31970) | DRSC18232 | 1.97e7 | 2.91e7 | – | 1.03e7 | 1.36e7 | inactive |
| CG32683 (GeneID 31970) | DRSC18233 | 2.45e7 | 2.93e7 | – | 1.14e7 | 1.38e7 | inactive |
| sphe (GeneID 32648) | DRSC20203 | 2.46e7 | 2.73e7 | – | 1.28e7 | 1.20e7 | inactive |
| Nagk (GeneID 41863) | DRSC15994 | 4.09e7 | 4.88e7 | – | 1.68e7 | 1.97e7 | inactive |
| Patsas (GeneID 34634) | DRSC02975 | 5.22e7 | – | – | 2.56e7 | – | inactive |
| CG8785 (GeneID 36391) | DRSC07266 | 4.65e7 | 4.48e7 | – | 1.89e7 | 1.96e7 | inactive |
| Not11 (GeneID 37839) | DRSC04204 | 2.92e7 | 3.74e7 | – | 1.58e7 | 1.80e7 | inactive |
| CG18518 (GeneID 34932) | DRSC01509 | 2.97e7 | 3.37e7 | – | 1.58e7 | 1.73e7 | inactive |
| CG33937 (retired record) (GeneID 50008) | DRSC15148 | 2.25e7 | 1.84e7 | – | 1.13e7 | 9.97e6 | inactive |
| XRCC1 (GeneID 31451) | DRSC18729 | 3.02e7 | 2.89e7 | – | 1.38e7 | 1.40e7 | inactive |
| CG11191 (GeneID 35765) | DRSC06056 | 3.14e7 | 2.92e7 | – | 1.42e7 | 1.52e7 | inactive |
| CG11191 (GeneID 35765) | DRSC23224 | 3.49e7 | 3.84e7 | – | 1.70e7 | 1.77e7 | inactive |
| ric8b + ric8a | DRSC18104 | 3.81e7 | 5.12e7 | – | 1.85e7 | 2.48e7 | inactive |
| CG43329 (GeneID 12798461) | DRSC11672 | 2.81e7 | 5.83e7 | – | 1.49e7 | 2.43e7 | inactive |
| UGP (GeneID 39065) | DRSC10411 | 5.50e7 | 4.30e7 | – | 3.71e7 | 1.93e7 | inactive |
| FucTD (GeneID 38164) | DRSC08634 | 3.36e7 | 3.85e7 | – | 1.68e7 | 1.83e7 | inactive |
| CG6843 (GeneID 40062) | DRSC10725 | 1.86e7 | 3.48e7 | – | 1.06e7 | 1.61e7 | inactive |
| CG16798 (GeneID 35308) | DRSC02517 | 4.93e7 | 5.27e7 | – | 2.49e7 | 2.32e7 | inactive |
| Wbp2 (GeneID 39460) | DRSC09821 | 5.78e7 | 4.81e7 | – | 3.43e7 | 2.08e7 | inactive |

4 entries already listed, arranged by “calcium entry signal, replicate 1 (fluorescence units)”, descending.
| gene | dsRNA | calcium entry signal, replicate 1 (fluorescence units) | calcium entry signal, replicate 2 (fluorescence units) | entry to resting ratio | resting calcium signal, replicate 1 (fluorescence units) | resting calcium signal, replicate 2 (fluorescence units) | outcome |
| --- | --- | --- | --- | --- | --- | --- | --- |
| UGP (GeneID 39065) | DRSC10411 | 5.50e7 | 4.30e7 | – | 3.71e7 | 1.93e7 | inactive |
| ric8b + ric8a | DRSC18104 | 3.81e7 | 5.12e7 | – | 1.85e7 | 2.48e7 | inactive |
| CG11191 (GeneID 35765) | DRSC23224 | 3.49e7 | 3.84e7 | – | 1.70e7 | 1.77e7 | inactive |
| CG43329 (GeneID 12798461) | DRSC11672 | 2.81e7 | 5.83e7 | – | 1.49e7 | 2.43e7 | inactive |

The results go on.
| gene | dsRNA | calcium entry signal, replicate 1 (fluorescence units) | calcium entry signal, replicate 2 (fluorescence units) | entry to resting ratio | resting calcium signal, replicate 1 (fluorescence units) | resting calcium signal, replicate 2 (fluorescence units) | outcome |
| --- | --- | --- | --- | --- | --- | --- | --- |
| CG15553 (GeneID 43677) | DRSC15091 | 4.14e7 | 4.94e7 | – | 1.91e7 | 2.06e7 | inactive |
| blo (GeneID 35866) | DRSC05937 | 5.51e7 | 4.29e7 | – | 2.47e7 | 2.01e7 | inactive |
| HERC2 (GeneID 33035) | DRSC20566 | 5.43e7 | 5.04e7 | – | 2.44e7 | 1.99e7 | inactive |
| CG9168 (GeneID 38163) | DRSC08633 | 3.38e7 | 4.12e7 | – | 1.69e7 | 1.84e7 | inactive |
| ine (GeneID 33659) | DRSC00822 | 3.36e7 | – | – | 1.65e7 | – | inactive |
| CG15209 (GeneID 32011) | DRSC19655 | 5.34e7 | 4.12e7 | – | 2.22e7 | 1.72e7 | inactive |
| Cyp6t3 (GeneID 36318) | DRSC07388 | 2.33e7 | 3.12e7 | – | 1.27e7 | 1.45e7 | inactive |
| CG13154 (GeneID 36359) | DRSC06279 | 2.47e7 | 3.27e7 | – | 1.42e7 | 1.72e7 | inactive |
| Sobp (GeneID 36260) | DRSC07312 | 3.01e7 | 2.94e7 | – | 1.33e7 | 1.40e7 | inactive |
| Send1 (GeneID 33407) | DRSC00482 | 2.98e7 | 2.83e7 | – | 1.42e7 | 1.25e7 | inactive |
| CG10151 (GeneID 36639) | DRSC05974 | 4.15e7 | 4.42e7 | – | 1.74e7 | 1.98e7 | inactive |
| CG2076 (GeneID 32041) | DRSC19832 | 3.30e7 | 4.14e7 | – | 1.66e7 | 1.85e7 | inactive |
| CG13059 (GeneID 39803) | DRSC09942 | 3.76e7 | 3.57e7 | – | 1.73e7 | 1.69e7 | inactive |
| CG6329 (GeneID 36529) | DRSC06976 | 3.00e7 | 3.42e7 | – | 1.36e7 | 1.69e7 | inactive |
| faf (GeneID 43749) | DRSC16942 | 5.03e7 | 4.78e7 | 2.2 | 2.26e7 | 2.06e7 | inactive |
| CG13288 (GeneID 38665) | DRSC09962 | 1.86e7 | 4.25e7 | – | 8.75e6 | 1.73e7 | inactive |
| CG12860 (GeneID 36629) | DRSC06200 | 2.70e7 | 4.59e7 | – | 1.38e7 | 1.94e7 | inactive |
| CG15865 (GeneID 32641) | DRSC19733 | 2.41e7 | 3.74e7 | – | 1.36e7 | 1.63e7 | inactive |
| CG13319 (GeneID 36423) | DRSC06356 | 5.06e7 | 3.52e7 | – | 2.67e7 | 1.80e7 | inactive |
| CkIIalpha (GeneID 48448) | DRSC11946 | 2.42e7 | 3.43e7 | – | 1.23e7 | 1.71e7 | inactive |
| CG14085 (GeneID 40099) | DRSC10089 | 2.79e7 | 5.01e7 | – | 1.36e7 | 2.06e7 | inactive |
| Cad74A (GeneID 39936) | DRSC10636 | 3.77e7 | 4.34e7 | – | 1.85e7 | 1.85e7 | inactive |
| CLS (GeneID 43104) | DRSC15642 | 3.31e7 | 4.35e7 | – | 1.72e7 | 1.97e7 | inactive |
| CG10317 (GeneID 41987) | DRSC14229 | 3.92e7 | 4.05e7 | – | 1.87e7 | 7.57e7 | inactive |
| CG43293 (GeneID 12798363) | DRSC08797 | 3.79e7 | 3.66e7 | – | 2.10e7 | 1.69e7 | inactive |
| CG11674 (GeneID 32374) | DRSC19414 | 3.31e7 | 3.70e7 | – | 1.35e7 | 1.63e7 | inactive |
| Nipsnap (GeneID 32573) | DRSC20169 | 4.12e7 | 4.24e7 | – | 1.97e7 | 1.96e7 | inactive |
